The text below walks through data of paper PMC10989928, “Cell division factor ZapE regulates Pseudomonas aeruginosa biofilm formation by impacting the pqs quorum sensing system” (mLife, 2023).

The chains behind the UniProt entries cited, without tags or fusion partners.
UniProt P47204: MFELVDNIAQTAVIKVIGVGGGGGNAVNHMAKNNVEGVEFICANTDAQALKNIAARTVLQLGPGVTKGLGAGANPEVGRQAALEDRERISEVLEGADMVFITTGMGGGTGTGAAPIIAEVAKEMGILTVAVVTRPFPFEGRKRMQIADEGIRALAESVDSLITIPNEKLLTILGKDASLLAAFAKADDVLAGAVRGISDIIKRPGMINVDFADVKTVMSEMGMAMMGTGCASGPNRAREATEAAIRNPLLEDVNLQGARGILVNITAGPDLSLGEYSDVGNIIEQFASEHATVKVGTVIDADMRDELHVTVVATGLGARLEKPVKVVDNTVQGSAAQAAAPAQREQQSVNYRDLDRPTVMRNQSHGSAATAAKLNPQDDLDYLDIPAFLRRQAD

These are yes or no findings as the source states them, for the method shown. Binding seen in cells or lysates may run through a third protein. Here binding means that the protein was enriched with, or labelled near, the bait; the list need not be complete.

B1: PqsH, endogenous in P. aeruginosa (enzyme, UniProt Q9I0Q0 1-382)
chain: MTVLIQGAGIAGLALAREFTKAGIDWLLVERASEIRPIGTGITLASNALTALSSTLDLDRLFRRGMPLAGINVYAHDGSMLMSMPSSLGGNSRGGLALQRHELHAALLEGLDESRIRVGVSIVQILDGLDHERVTLSDGTVHDCSLVVGADGIRSSVRRYVWPEATLRHSGETCWRLVVPHRLEDAELAGEVWGHGKRLGFIQISPREMYVYATLKVRREEPEDEEGFVTPQRLAAHYADFDGIGASIARLIPSATTLVHNDLEELAGASWCRGRVVLIGDAAHAMTPNLGQGAAMALEDAFLLARLWCLAPRAETLILFQQQREARIEFIRKQSWIVGRLGQWESPWSVWLRNTLVRLVPNASRRRLHQRLFTGVGEMAAQ
B2: PhzM, phenazine-1-carboxylate N-methyltransferase, endogenous in P. aeruginosa (enzyme, UniProt Q9HWH2 1-334)
chain: MNNSNLAAARNLIQVVTGEWKSRCVYVATRLGLADLIESGIDSDETLAAAVGSDAERIHRLMRLLVAFEIFQGDTRDGYANTPTSHLLRDVEGSFRDMVLFYGEEFHAAWTPACEALLSGTPGFELAFGEDFYSYLKRCPDAGRRFLLAMKASNLAFHEIPRLLDFRGRSFVDVGGGSGELTKAILQAEPSARGVMLDREGSLGVARDNLSSLLAGERVSLVGGDMLQEVPSNGDIYLLSRIIGDLDEAASLRLLGNCREAMAGDGRVVVIERTISASEPSPMSVLWDVHLFMACAGRHRTTEEVVDLLGRGGFAVERIVDLPMETRMIVAARA

The target of this test is ZapE (PA4438) fused to GFP, expressed from p20T-zapE-gfp in P. aeruginosa ΔzapE (P. aeruginosa PAO1) (UniProt Q9HVX7). The test is described as follows: affinity purification with mass spectrometry; ZapE-GFP expressed in ΔzapE; total proteins incubated with GFP-trap Agarose; LC-MS/MS; GFP alone (p20T-gfp) as control; Mascot score ≥ 100 as threshold.
As to “FtsZ, cell division protein, endogenous in P. aeruginosa (from UniProt P47204 1-394)”, the binding result was “binds”.

Turning to B1, the binding result was “binds”.

As to B2, the binding result is reported as “binds”.
